Test results reported in the supplement of paper PMC10849652.
This is one part of the list.

Sequences of proteins named here, by UniProt entry; tags and fusion partners are left off. A change or cut given only in a name is not applied to a line headed by its entry.
UniProt O60662: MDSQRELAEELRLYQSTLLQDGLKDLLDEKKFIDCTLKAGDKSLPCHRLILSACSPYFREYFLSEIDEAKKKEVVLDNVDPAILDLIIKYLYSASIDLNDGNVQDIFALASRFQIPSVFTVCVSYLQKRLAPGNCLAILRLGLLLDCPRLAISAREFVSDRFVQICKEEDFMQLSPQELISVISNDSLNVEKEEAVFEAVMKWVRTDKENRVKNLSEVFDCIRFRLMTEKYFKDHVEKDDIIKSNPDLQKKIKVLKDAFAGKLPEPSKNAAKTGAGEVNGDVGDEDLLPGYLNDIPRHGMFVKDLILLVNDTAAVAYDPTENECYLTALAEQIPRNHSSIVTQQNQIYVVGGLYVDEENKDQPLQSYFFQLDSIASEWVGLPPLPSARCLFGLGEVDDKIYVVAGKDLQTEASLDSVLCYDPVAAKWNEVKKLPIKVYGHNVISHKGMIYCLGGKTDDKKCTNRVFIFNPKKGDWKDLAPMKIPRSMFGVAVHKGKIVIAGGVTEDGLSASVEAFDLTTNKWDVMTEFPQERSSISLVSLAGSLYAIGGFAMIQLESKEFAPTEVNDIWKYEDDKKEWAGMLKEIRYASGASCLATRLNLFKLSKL
UniProt Q6ZV70: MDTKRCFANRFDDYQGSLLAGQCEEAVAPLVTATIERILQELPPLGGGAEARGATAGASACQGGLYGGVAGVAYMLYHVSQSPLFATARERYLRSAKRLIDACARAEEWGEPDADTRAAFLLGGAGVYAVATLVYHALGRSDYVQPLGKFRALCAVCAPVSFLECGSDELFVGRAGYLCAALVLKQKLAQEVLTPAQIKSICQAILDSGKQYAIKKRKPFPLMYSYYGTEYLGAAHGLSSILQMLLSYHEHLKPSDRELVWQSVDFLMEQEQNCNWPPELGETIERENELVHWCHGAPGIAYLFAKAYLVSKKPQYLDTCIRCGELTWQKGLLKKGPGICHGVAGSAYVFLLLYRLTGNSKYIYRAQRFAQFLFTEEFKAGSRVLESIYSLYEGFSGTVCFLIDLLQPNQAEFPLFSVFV
UniProt Q9NVR0: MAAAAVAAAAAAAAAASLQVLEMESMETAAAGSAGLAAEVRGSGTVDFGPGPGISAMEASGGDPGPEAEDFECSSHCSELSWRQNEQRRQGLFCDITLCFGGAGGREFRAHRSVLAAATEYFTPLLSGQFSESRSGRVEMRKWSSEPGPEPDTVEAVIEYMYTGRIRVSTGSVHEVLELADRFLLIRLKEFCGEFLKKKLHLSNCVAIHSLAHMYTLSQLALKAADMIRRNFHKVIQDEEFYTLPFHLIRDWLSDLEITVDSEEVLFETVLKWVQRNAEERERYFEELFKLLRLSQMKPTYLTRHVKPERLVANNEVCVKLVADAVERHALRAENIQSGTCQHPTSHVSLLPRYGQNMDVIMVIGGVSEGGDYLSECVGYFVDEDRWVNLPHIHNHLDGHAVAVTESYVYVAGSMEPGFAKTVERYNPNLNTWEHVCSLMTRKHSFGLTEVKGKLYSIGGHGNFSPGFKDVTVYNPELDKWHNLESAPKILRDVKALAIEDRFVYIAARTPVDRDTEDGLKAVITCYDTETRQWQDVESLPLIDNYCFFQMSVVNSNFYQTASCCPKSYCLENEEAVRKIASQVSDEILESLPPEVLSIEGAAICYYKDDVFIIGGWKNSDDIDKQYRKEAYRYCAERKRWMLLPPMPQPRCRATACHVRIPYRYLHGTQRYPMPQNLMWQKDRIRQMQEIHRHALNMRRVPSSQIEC
UniProt Q2M2Z5: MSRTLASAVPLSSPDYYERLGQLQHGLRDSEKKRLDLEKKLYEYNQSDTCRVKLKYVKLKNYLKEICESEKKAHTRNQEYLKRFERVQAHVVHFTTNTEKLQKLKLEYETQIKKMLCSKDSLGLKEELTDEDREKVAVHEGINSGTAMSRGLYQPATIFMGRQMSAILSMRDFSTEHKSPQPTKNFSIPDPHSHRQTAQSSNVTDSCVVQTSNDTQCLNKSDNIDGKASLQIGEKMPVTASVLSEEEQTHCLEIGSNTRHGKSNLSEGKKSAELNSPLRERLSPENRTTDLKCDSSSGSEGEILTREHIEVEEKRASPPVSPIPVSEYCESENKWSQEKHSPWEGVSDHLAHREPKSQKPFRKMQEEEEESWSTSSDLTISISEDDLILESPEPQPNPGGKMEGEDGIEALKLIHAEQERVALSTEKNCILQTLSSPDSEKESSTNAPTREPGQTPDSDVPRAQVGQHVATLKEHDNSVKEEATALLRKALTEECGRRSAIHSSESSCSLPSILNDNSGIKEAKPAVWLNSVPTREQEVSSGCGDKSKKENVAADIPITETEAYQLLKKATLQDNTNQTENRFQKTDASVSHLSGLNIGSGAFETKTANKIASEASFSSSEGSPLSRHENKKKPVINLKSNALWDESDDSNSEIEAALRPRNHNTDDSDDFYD
UniProt O75037: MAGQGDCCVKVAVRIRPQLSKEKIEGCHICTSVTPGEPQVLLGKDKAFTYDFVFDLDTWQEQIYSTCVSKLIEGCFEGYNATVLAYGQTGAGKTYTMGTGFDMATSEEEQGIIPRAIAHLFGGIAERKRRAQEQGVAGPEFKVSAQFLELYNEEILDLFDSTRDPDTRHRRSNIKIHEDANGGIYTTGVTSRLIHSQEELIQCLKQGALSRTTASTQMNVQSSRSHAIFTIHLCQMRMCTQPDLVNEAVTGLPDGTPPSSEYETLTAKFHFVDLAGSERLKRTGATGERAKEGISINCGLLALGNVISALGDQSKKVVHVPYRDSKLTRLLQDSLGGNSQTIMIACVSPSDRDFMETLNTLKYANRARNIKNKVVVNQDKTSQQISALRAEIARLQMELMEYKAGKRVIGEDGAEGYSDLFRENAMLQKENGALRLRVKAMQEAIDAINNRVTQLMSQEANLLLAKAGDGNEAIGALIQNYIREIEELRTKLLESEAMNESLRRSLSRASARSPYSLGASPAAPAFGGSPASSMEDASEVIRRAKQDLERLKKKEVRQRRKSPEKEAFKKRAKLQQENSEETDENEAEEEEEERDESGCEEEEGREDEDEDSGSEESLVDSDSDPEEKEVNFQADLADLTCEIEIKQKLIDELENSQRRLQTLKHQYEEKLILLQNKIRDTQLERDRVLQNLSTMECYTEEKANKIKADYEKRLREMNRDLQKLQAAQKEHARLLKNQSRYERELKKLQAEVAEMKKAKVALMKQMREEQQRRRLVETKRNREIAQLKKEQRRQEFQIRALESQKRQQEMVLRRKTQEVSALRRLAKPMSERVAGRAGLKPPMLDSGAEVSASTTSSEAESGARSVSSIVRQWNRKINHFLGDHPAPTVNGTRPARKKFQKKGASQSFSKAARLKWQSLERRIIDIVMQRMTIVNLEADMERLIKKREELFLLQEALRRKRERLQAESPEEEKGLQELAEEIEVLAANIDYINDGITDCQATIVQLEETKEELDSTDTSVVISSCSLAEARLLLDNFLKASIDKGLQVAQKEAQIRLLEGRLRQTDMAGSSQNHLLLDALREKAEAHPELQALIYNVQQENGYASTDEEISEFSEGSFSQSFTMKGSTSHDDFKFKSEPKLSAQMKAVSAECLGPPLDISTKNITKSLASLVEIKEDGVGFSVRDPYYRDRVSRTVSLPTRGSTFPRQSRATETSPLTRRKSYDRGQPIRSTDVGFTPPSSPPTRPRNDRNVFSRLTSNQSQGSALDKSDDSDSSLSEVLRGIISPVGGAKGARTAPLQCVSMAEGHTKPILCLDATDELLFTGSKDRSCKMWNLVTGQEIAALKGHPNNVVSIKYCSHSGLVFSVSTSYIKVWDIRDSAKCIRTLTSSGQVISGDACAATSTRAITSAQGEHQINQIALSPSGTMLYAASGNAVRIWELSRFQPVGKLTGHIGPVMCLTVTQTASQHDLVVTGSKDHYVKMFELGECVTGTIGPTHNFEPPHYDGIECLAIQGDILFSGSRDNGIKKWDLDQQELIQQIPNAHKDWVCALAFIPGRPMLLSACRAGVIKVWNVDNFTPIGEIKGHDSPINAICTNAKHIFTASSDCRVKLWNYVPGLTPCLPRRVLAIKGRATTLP
UniProt Q9BVG8: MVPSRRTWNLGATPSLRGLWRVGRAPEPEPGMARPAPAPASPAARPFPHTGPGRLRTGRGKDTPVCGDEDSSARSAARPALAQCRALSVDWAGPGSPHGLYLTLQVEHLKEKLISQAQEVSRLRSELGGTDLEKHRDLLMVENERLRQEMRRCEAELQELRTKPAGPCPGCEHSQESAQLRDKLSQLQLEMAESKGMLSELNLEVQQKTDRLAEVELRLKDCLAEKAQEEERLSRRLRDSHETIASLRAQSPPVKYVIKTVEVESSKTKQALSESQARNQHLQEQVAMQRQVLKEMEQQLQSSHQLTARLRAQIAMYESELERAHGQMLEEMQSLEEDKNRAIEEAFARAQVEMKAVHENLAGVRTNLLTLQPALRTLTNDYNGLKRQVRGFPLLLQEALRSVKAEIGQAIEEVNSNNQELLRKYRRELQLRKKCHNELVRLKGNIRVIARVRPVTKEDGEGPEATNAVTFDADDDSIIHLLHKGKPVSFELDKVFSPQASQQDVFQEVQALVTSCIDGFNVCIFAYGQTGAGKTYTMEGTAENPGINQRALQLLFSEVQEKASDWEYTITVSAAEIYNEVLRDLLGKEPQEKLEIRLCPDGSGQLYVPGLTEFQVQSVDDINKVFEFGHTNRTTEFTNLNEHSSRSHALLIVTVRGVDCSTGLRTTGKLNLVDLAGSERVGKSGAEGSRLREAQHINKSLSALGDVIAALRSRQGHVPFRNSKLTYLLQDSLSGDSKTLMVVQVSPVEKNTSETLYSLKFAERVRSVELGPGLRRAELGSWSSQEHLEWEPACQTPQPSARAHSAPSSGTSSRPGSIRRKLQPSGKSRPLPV
UniProt Q86VI4: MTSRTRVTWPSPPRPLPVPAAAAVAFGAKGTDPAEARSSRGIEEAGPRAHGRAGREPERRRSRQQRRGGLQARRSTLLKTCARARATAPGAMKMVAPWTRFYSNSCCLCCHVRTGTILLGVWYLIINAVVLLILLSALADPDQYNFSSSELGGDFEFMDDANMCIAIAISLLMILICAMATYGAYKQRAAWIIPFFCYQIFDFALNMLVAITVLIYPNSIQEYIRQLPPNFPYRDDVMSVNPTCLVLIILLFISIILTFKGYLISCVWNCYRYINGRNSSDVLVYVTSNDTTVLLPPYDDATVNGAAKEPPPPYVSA
UniProt Q6TDP4, whole entry, looked up: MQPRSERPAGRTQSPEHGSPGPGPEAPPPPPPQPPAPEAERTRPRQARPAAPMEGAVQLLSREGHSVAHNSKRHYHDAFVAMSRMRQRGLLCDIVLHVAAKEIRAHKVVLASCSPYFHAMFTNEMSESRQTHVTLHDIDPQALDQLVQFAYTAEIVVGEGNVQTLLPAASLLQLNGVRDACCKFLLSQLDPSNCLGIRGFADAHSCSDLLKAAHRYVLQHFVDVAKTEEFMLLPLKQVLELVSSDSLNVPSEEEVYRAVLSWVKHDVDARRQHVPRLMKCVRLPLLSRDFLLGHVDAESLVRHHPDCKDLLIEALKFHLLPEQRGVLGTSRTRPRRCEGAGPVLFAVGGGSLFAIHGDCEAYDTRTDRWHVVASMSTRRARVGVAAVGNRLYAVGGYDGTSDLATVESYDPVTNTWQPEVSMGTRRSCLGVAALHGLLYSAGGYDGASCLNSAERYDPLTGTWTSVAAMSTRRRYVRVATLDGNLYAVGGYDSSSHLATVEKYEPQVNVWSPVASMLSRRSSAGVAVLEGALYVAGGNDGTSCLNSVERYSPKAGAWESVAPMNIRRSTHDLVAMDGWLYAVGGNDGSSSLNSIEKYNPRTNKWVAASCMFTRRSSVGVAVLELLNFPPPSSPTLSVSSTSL
UniProt P13473: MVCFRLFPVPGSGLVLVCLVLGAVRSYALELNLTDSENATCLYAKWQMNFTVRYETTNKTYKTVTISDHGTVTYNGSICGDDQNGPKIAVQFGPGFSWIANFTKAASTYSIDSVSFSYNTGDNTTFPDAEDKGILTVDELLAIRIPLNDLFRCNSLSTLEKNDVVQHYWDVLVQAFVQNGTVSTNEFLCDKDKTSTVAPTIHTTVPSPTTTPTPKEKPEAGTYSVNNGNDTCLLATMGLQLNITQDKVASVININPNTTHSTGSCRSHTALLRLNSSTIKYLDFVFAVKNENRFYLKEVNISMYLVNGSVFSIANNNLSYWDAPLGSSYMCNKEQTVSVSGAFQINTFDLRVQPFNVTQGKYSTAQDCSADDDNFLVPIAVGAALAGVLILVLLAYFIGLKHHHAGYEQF

How the values were obtained:
Test in all cases: log2 fold change, soluble protein after heating vs DMSO (PISA); higher = thermal stabilisation; K562 lysate, 10 uM; active = over 0.2 and 3.5 SD of the protein, either way, in both replicates (recomputed)
ibrutinib = compound: C=CC(=O)N1CCC[C@@H](n2nc(-c3ccc(Oc4ccccc4)cc3)c3c(N)ncnc32)C1 [ibrutinib]
Method in brief: (§1)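 A 30 min treatment with 10 μM compound was applied to crude K562 extract at 1 mg/mL protein in PBS pH 7.4 with 1 mM MgCl2. Heating for 3 min spanned 48°C-58°C, after which aliquots were pooled, adjusted to 0.5% NP-40 at 4°C and spun at 21,000xg for 90 min. TMTpro 16plex LC-MS/MS of the supernatant, with channel sums equalised, gave values recorded as log-two fold change in thermal stability against solvent controls, from duplicates.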

[1] = compound: CC(=O)c1cnc2ccc(-c3cc(Cl)c(O)c(Cl)c3)nc2c1N[C@H]1CC[C@H](CN(C)C)CC1
Method in brief: as §1

ralimetinib = compound: CC(C)(C)Cn1c(N)nc2ccc(-c3[nH]c(C(C)(C)C)nc3-c3ccc(F)cc3)nc21 [ralimetinib]
Method in brief: as §1

[2] = compound: CC(C)(O)CC(=O)NCCn1ccc2ncnc(Nc3ccc(Oc4cccc(C(F)(F)F)c4)c(Cl)c3)c21
Method in brief: as §1

[3] = compound: CC(C)C1=C2N=C(C=C(N2N=C1)NCC3=CC=CC=C3)NCCCCCCN
Method in brief: as §1

[4] = compound: CC1=C(C(CC(=O)N1)C2=CC=C(C=C2)C(F)(F)F)C(=O)NC3=C(C=C4C(=C3)C=NN4)F
Method in brief: as §1

[5] = compound: CC1=C(C2=C(C=C1)C(=O)C3=CC=CC=C3N2CCCN)C
Method in brief: as §1

[6] = compound: CC1=C(C=C(C=C1)NC(=O)C2=CC(=CC=C2)C(C)(C)C#N)NC3=CC4=C(C=C3)N=CN(C4=O)C
Method in brief: as §1

[7] = compound: CC1=C(C=C(C=C1)NC(=O)C2=CC(=CC=C2)N(C)C)NC(=O)C3=CC=C(C=C3)O
Method in brief: as §1

[8] = compound: CC1=CC=C(C=C1)SC2=C3C=C(SC3=CN=C2)C(=O)N
Method in brief: as §1

vemurafenib = compound: CCCS(=O)(=O)Nc1ccc(F)c(C(=O)c2c[nH]c3ncc(-c4ccc(Cl)cc4)cc23)c1F [vemurafenib]
Method in brief: as §1

[9] = compound: CCCS(=O)(=O)Nc1ccc(F)c(C(=O)c2c[nH]c3ncc(Cl)cc23)c1F
Method in brief: as §1

barasertib = compound: CCN(CCCOc1ccc2c(Nc3cc(CC(=O)Nc4cccc(F)c4)[nH]n3)ncnc2c1)CCOP(=O)(O)O [barasertib]
Method in brief: as §1

[10] = compound: CC[C@@H]1C(=O)N(C)c2cnc(Nc3ccc(C(=O)NC4CCN(C)CC4)cc3OC)nc2N1C1CCCC1
Method in brief: as §1

volasertib = compound: CC[C@@H]1C(=O)N(C)c2cnc(Nc3ccc(C(=O)N[C@H]4CC[C@H](N5CCN(CC6CC6)CC5)CC4)cc3OC)nc2N1C(C)C [volasertib]
Method in brief: as §1

[11] = compound: CCn1c(C(=O)N(C2CC2)C2CC2)cc2c3c(ncn3C)c(Nc3cc(C)n(C)n3)nc21
Method in brief: as §1

[12] = compound: CCn1cc(-c2ccnc3[nH]c(-c4cccc(CN(C)C)c4)cc23)c(-c2ccc(NC(=O)N(C)C)cc2)n1
Method in brief: as §1

[13] = compound: CN1CCC(CNc2ccc3ncc(-c4cccc(OC(F)(F)F)c4)n3n2)CC1
Method in brief: as §1

saracatinib = compound: CN1CCN(CCOc2cc(OC3CCOCC3)c3c(Nc4c(Cl)ccc5c4OCO5)ncnc3c2)CC1 [saracatinib]
Method in brief: as §1

sotrastaurin = compound: CN1CCN(c2nc(C3=C(c4c[nH]c5ccccc45)C(=O)NC3=O)c3ccccc3n2)CC1 [sotrastaurin]
Method in brief: as §1

Measured: log2 fold change

KLHL41 (UniProt O60662)
inactive: ibrutinib -0.063 | [1] -0.073 | ralimetinib -0.005 | [2] -0.205 | [3] 0.036 | [4] 0.011 | [5] -0.086 | [6] 0.328 | [7] 0.027 | [8] 0.022 | vemurafenib -0.115 | [9] -0.015 | barasertib 0.06 | [10] -0.085 | volasertib 0.05 | [11] -0.224 | [12] -0.382 | [13] 0.181 | saracatinib 0.105 | sotrastaurin -0.107

KIF15 (UniProt Q9NS87)
inactive: ibrutinib -0.017 | [1] 0.006 | ralimetinib 0.008 | [2] -0.022 | [3] 0.01 | [4] 0.022 | [5] -0.027 | [6] 0.02 | [7] 0.036 | [8] -0.015 | vemurafenib -0.01 | [9] 0.045 | barasertib 0.016 | [10] -0.018 | volasertib -0.053 | [11] 0.036 | [12] 0.006 | [13] -0.036 | saracatinib 0.019 | sotrastaurin 0

LANCL3 (UniProt Q6ZV70)
inactive: ibrutinib 0.081 | [4] -0.005 | vemurafenib 0.106 | barasertib -0.062 | [10] -0.065 | [12] 0.046 | [13] -0.044

KLHL11 (UniProt Q9NVR0)
inactive: ibrutinib -0.036 | ralimetinib -0.039 | [2] 0.052 | [3] 0.063 | [4] 0.011 | [5] 0.014 | [6] 0.072 | [7] -0.101 | vemurafenib 0.094 | barasertib -0.011 | [10] -0.027 | [11] 0.089 | [12] -0.022 | [13] 0.053 | saracatinib 0.032 | sotrastaurin 0.038

KDM4C (UniProt Q9H3R0)
inactive: ibrutinib 0.28 | ralimetinib -0.038 | [2] -0.467 | [4] 0.424 | [5] 0.139 | [7] 0.257 | barasertib 0.115 | [11] 0.183 | [12] 0.066 | [13] -0.091 | saracatinib 0.091

KHNYN (UniProt O15037)
inactive: ibrutinib -0.001 | ralimetinib 0.15 | [2] -0.038 | [3] -0.031 | [4] -0.335 | [5] -0.126 | [6] 0.019 | [7] 0.005 | vemurafenib 0.075 | barasertib -0.018 | [10] -0.011 | [11] 0.079 | saracatinib 0.076 | sotrastaurin 0.084

KIFAP3 (UniProt Q92845)
inactive: ibrutinib 0.017 | ralimetinib -0.013 | [2] 0.009 | [4] 0.144 | [5] 0.009 | [6] -0.027 | [7] -0.018 | barasertib -0.237 | [10] 0.043 | [11] 0.068 | [12] -0.073 | [13] 0.067 | saracatinib -0.014 | sotrastaurin 0.002

KTN1 (UniProt G3V5Q0)
inactive: ibrutinib 0.015 | [3] -0.085 | vemurafenib 0.136 | barasertib 0.018 | [10] 0.067

Reprinted at random: 2 entries already listed, in no set order.
KTN1 (UniProt G3V5Q0)
inactive: ibrutinib 0.015 | [3] -0.085 | vemurafenib 0.136 | barasertib 0.018 | [10] 0.067

KDM4C (UniProt Q9H3R0)
inactive: ibrutinib 0.28 | ralimetinib -0.038 | [2] -0.467 | [4] 0.424 | [5] 0.139 | [7] 0.257 | barasertib 0.115 | [11] 0.183 | [12] 0.066 | [13] -0.091 | saracatinib 0.091

Later entries:

KIZ (UniProt Q2M2Z5)
inactive: ibrutinib -0.011 | ralimetinib 0.027 | [2] -0.035 | [3] 0.026 | [5] 0.178 | [6] 0.012 | [7] -0.01 | vemurafenib 0.053 | barasertib -0.034 | [10] 0.002 | [11] -0.02 | [12] 0.018 | [13] 0.1 | saracatinib -0.116 | sotrastaurin -0.013

KIF21A (UniProt H0YI78)
inactive: ibrutinib -0.187 | [1] -0.073 | [3] -0.006 | [4] 0.107 | [5] 0.017 | [8] 0.031 | [9] 0.017 | barasertib -0.198 | volasertib -0.008 | saracatinib -0.151

KIF21B (UniProt O75037)
inactive: ibrutinib -0.064 | [1] -0.093 | ralimetinib 0.001 | [2] -0.175 | [4] 0.05 | [5] -0.02 | [6] 0.134 | [7] -0.062 | [8] -0.2 | vemurafenib 0.161 | [9] 0.072 | barasertib -0.134 | [10] -0.023 | volasertib 0.016 | [11] -0.084 | [12] -0.037 | [13] -0.005 | saracatinib -0.047 | sotrastaurin -0.019

KIF1B isoform 3 (UniProt O60333)
inactive: ibrutinib -0.113 | ralimetinib 0.067 | [2] 0.051 | [3] 0.081 | [4] 0.139 | [5] -0.339 | [6] 0.046 | [7] -0.147 | barasertib 0.101 | [10] 0.236 | [11] -0.262 | [12] -0.081 | [13] 0.025 | saracatinib -0.084 | sotrastaurin 0.005

KDM5B isoform 2 (UniProt Q9UGL1)
inactive: ibrutinib -0.075 | [1] -0.046 | ralimetinib -0.083 | [2] -0.165 | [3] -0.072 | [5] -0.129 | [6] -0.016 | [7] -0.095 | [8] -0.098 | vemurafenib 0.043 | [9] 0.073 | barasertib 0.039 | [10] 0.138 | volasertib 0.071 | [11] -0.059 | [12] -0.107 | [13] -0.034 | saracatinib -0.113 | sotrastaurin -0.136

KIFC3 isoform 6 (UniProt Q9BVG8)
inactive: ibrutinib 0 | [3] 0.097 | [5] -0.231 | [6] 0.193 | vemurafenib 0.052 | barasertib 0.025 | [10] 0.409 | [12] 0.284 | [13] 0.256 | saracatinib 0.005 | sotrastaurin 0.028

KLC1 isoform 10 (UniProt Q07866)
inactive: ibrutinib 0.235 | [3] -0.129 | barasertib 0.238 | [10] 0.152

KRT13 (UniProt K7EMD9)
inactive: ibrutinib -0.157 | ralimetinib -0.17 | [2] -0.355 | [3] -0.014 | [7] 0.013 | barasertib -0.115 | [11] -0.272

LAMA5 (UniProt O15230)
inactive: ibrutinib -0.29 | ralimetinib 0.036 | [2] -0.04 | [3] -0.133 | [5] 0.021 | [6] -0.094 | [7] 0.017 | barasertib -0.321 | [10] -0.044 | [11] -0.012 | [12] 0.009 | [13] 0.104 | saracatinib -0.051 | sotrastaurin 0.05

KIF3C (UniProt O14782)
inactive: [1] -0.041 | ralimetinib -0.038 | [2] -0.032 | [3] -0.015 | [4] 0.03 | [5] -0.116 | [6] -0.007 | [7] 0.023 | [8] 0.044 | vemurafenib 0.565 | [9] -0.213 | [10] -0.296 | volasertib 0.186 | [11] 0.018 | [12] -0.138 | [13] -0.037 | saracatinib 0.02 | sotrastaurin -0.022

KRI1 (UniProt Q8N9T8)
inactive: ibrutinib -0.023 | ralimetinib 0.047 | [2] -0.018 | [3] 0.043 | [4] 0.074 | [5] -0.069 | [6] 0.02 | [7] 0.046 | vemurafenib -0.079 | barasertib -0.03 | [10] 0.005 | [11] 0.021 | [12] -0.005 | [13] -0.014 | saracatinib 0 | sotrastaurin 0.008

LAPTM4B (UniProt Q86VI4)
inactive: ibrutinib -0.028 | ralimetinib -0.007 | [2] -0.161 | [3] -0.074 | [7] 0.03 | barasertib -0.027 | [11] -0.016 | [12] -0.233 | [13] 0.309

KIF26A (UniProt Q9ULI4)
inactive: ibrutinib -0.022 | ralimetinib -0.125 | [2] 0.084 | [3] 0.008 | [4] -0.02 | [5] 0.007 | [6] 0.033 | [7] -0.048 | vemurafenib 0.135 | barasertib 0 | [10] 0.08 | [11] -0.01 | [12] -0.076 | [13] -0.005 | saracatinib -0.067 | sotrastaurin -0.033

KLHL17 (UniProt Q6TDP4)
inactive: ibrutinib 0.032 | ralimetinib -0.124 | [2] 0.086 | [3] -0.101 | [7] -0.212 | barasertib -0.036 | [10] -0.056 | [11] 0.111 | [12] 0 | [13] 0.004

LAMP2 isoform 2 (UniProt P13473)
inactive: ibrutinib 0.058 | ralimetinib -0.026 | [2] 0.028 | [3] -0.054 | [4] -0.08 | [6] -0.091 | [7] 0.05 | barasertib -0.073 | [11] 0.028 | [12] 0.087 | [13] -0.081 | sotrastaurin 0.002
